This test concerns the target T1, wild type KV10.1 (UniProt O95259).
T1 sequence: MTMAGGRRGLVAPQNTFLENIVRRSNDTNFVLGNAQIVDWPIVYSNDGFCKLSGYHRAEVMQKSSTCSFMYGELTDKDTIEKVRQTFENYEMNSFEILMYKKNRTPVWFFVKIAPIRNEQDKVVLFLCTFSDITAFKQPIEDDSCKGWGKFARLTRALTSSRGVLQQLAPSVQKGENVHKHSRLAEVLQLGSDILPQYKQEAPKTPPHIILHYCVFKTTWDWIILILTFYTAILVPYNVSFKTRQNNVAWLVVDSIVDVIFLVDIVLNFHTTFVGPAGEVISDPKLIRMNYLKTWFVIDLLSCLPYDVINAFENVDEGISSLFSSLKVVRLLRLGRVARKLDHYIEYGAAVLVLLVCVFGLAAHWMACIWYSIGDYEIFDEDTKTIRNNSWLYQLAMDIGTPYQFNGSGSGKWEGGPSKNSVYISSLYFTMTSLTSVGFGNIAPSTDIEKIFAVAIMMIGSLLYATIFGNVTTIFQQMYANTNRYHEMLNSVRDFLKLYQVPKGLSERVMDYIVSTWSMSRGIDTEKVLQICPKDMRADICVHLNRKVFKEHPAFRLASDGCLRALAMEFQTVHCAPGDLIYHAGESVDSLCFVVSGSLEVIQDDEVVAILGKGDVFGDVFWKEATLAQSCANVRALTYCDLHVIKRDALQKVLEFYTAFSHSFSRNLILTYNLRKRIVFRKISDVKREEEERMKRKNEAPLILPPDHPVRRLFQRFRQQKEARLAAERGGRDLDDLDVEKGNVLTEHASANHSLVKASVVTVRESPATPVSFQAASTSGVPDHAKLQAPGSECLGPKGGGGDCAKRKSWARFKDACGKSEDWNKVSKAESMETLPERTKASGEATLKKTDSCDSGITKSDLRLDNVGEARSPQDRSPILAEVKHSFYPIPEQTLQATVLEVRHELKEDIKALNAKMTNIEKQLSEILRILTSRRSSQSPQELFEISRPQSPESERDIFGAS
Description: cellular uptake of biotinylated toxin, blot with streptavidin-peroxidase; only the binder purified.

By UniProt entry, the sequences of proteins in these tests, tags left out. Residues count along the entry.
UniProt P60615, residues 22-95: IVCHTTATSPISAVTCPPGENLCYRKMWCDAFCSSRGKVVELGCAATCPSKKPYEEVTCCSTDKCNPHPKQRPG

These are yes or no findings as the source states them, for the method shown.

Regarding “α-bungarotoxin-biotin (from UniProt P60615 22-95)”, the binding result is on record as “no binding (tested: 0.15 µM)”.

(Values after publication PMC3192180.)
